In article PMC12314576, “The Actin‐Binding Prolyl‐Isomerase Par17 Sustains Its Substrate Selectivity by Interdomain Allostery” (Proteins, 2025):
Results are given in words; binding and its absence hold for the method and conditions named. Some binding calls cover weakened binding; strength is not graded here.

Legend:
Assay in all cases: peptide or protein array; 12-mers of β-actin (2 amino acids per step) SPOT-synthesised on cellulose membranes, blocked with 5% BSA in PBS, incubated overnight with Atto594-labeled Par14 or Par17, washed with PBS, fluorescence imaged; runs of three or more spots classified as possible binding sites; both purified
β-actin 12-mer, spot G7 = biological target: T1, β-actin 12-mer, spot G7
T1 sequence (peptide): ERFRCPEALFQP

β-actin 12-mer, spot T1 = biological target: T2, β-actin 12-mer, spot T1
T2 sequence (peptide): RHQGVMVGMGQK

β-actin 12-mer, spot C3 = biological target: T3, β-actin 12-mer, spot C3
T3 sequence (peptide): IWHHTFYNELRV

β-actin 12-mer, spot K8 = biological target: T4, β-actin 12-mer, spot K8
T4 sequence (peptide): GGTTMYPGIADR

β-actin 12-mer, spot O5 = biological target: T5, β-actin 12-mer, spot O5
T5 sequence (peptide): LMKILTERGYSF

β-actin 12-mer, spot J4 = biological target: T6, β-actin 12-mer, spot J4
T6 sequence (peptide): VLSLYASGRTTG

β-actin 12-mer, spot N5 = biological target: T7, β-actin 12-mer, spot N5
T7 sequence (peptide): DYLMKILTERGY

β-actin 12-mer, spot S1 = biological target: T8, β-actin 12-mer, spot S1
T8 sequence (peptide): RPRHQGVMVGMG

β-actin 12-mer, spot F4 = biological target: T9, β-actin 12-mer, spot F4
T9 sequence (peptide): AMYVAIQAVLSL

β-actin 12-mer, spot J2 = biological target: T10, β-actin 12-mer, spot J2
T10 sequence (peptide): QSKRGILTLKYP

β-actin 12-mer, spot P5 = biological target: T11, β-actin 12-mer, spot P5
T11 sequence (peptide): KILTERGYSFTT

β-actin 12-mer, spot G4 = biological target: T12, β-actin 12-mer, spot G4
T12 sequence (peptide): YVAIQAVLSLYA

β-actin 12-mer, spot F9 = biological target: T13, β-actin 12-mer, spot F9
T13 sequence (peptide): APPERKYSVWIG

β-actin 12-mer, spot L4 = biological target: T14, β-actin 12-mer, spot L4
T14 sequence (peptide): YASGRTTGIVMD

β-actin 12-mer, spot J9 = biological target: T15, β-actin 12-mer, spot J9
T15 sequence (peptide): VWIGGSILASLS

β-actin 12-mer, spot E9 = biological target: T16, β-actin 12-mer, spot E9
T16 sequence (peptide): IIAPPERKYSVW

binding (β-actin 12-mer, spot G7): binds
binding (β-actin 12-mer, spot T1): binds
binding (β-actin 12-mer, spot C3): binds
binding (β-actin 12-mer, spot K8): binds
binding (β-actin 12-mer, spot O5): binds
binding (β-actin 12-mer, spot J4): binds
binding (β-actin 12-mer, spot N5): binds
binding (β-actin 12-mer, spot S1): binds
binding (β-actin 12-mer, spot F4): binds
binding (β-actin 12-mer, spot J2): binds
binding (β-actin 12-mer, spot P5): binds
binding (β-actin 12-mer, spot G4): binds
binding (β-actin 12-mer, spot F9): binds
binding (β-actin 12-mer, spot L4): binds
binding (β-actin 12-mer, spot J9): binds
binding (β-actin 12-mer, spot E9): binds
Substance: Atto594-labeled Par17 (from UniProt Q9Y237-2 3-156) (enzyme)
